This note sets out measurements from publication PMC6730887, “FKBP51 and FKBP12.6—Novel and tight interactors of Glomulin” (PLoS ONE, 2019).

Residue numbers refer to the chain shown, from its start. Names may count otherwise. These are yes or no findings as the source states them, for the method shown. Some binding calls cover weakened binding; strength is not graded here. Sequences can lack the tags named with a protein.

Assay [1] addresses T1, His-FKBP51FK1-MonoCys (aa1-140, C103A, C107I, E140C) labelled with Fluorescein-5-Maleimide (UniProt Q13451).
T1 sequence (chain, Fluorescein-5-Maleimide on the single C-terminal cysteine (E140C)): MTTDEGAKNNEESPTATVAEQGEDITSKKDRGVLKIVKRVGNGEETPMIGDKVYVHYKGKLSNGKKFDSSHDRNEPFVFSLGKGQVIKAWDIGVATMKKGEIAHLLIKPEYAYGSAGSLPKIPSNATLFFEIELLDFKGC
Put plainly: AlphaScreen or HTRF; competitive HTRF: unlabelled FKBP titrated against 30 nM FKBP51FK1-5-MF and 30 nM GST-Glmn with Anti GST-Tb cryptate; 20 mM HEPES, 5% glycerol, 20 mM NaCl, 10 mM DTT, pH 8.0; room temperature, 1 h; both purified. Background: In Alpha technology, singlet oxygen from a donor bead excites a nearby acceptor bead.

For assay [2], the target named is His-FKBP12-MonoCys (C23V / E108C) labelled with Fluorescein-5-Maleimide (UniProt P62942). The assay is described as follows: AlphaScreen or HTRF; direct HTRF: GST-Glmn titrated to 30 nM Fluorescein-labelled FKBP in the presence of 0.8 nM Anti GST-Tb cryptate; Ex 485 nm, Em 520 / 620 nm; both purified.
Assay [3] concerns the target T1, His-FKBP51FK1-MonoCys (aa1-140, C103A, C107I, E140C) labelled with Fluorescein-5-Maleimide. Described as above.
The next assay deals with T2, GST-Glmn (Glomulin) (UniProt Q92990).
T2 sequence: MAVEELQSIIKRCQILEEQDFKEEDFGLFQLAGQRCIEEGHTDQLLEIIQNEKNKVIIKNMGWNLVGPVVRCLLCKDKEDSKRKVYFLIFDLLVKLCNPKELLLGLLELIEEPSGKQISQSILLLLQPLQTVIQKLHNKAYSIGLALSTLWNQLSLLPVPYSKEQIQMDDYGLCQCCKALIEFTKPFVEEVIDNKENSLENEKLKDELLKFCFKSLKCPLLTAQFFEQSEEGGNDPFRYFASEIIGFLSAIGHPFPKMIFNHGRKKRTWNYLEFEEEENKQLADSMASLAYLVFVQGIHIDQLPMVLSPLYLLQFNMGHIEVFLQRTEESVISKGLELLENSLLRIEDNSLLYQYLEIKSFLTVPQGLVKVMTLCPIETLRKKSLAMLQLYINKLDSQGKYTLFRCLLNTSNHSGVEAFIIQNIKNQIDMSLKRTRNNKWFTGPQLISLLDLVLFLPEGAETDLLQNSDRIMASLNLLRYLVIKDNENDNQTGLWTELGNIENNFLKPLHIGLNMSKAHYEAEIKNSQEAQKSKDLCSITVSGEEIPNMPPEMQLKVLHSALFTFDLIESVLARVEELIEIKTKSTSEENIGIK
Put plainly: AlphaScreen or HTRF; competitive HTRF: unlabelled FKBP titrated against 30 nM FKBP51FK1-5-MF and 30 nM GST-Glmn with Anti GST-Tb cryptate; 20 mM HEPES, 5% glycerol, 20 mM NaCl, 10 mM DTT, pH 8.0; room temperature, 1 h; both purified.

B1: GST-Glmn (Glomulin) (protein, UniProt Q92990 1-594)
chain: T2 sequence
Turning to B1, the binding result is reported as “binds” in assay [1], “no binding” in assay [2] and “binds” in assay [3].

B2: His-FKBP51FK1 (F67V) (domain or fragment)
chain: T1 sequence (chain, Fluorescein-5-Maleimide on the single C-terminal cysteine (E140C)) with F67V, A103C, I107C, C140E
Take B2: the binding result with GST-Glmn (Glomulin) was “binds”.
